{
  "sequences": {"note": "The chains behind the UniProt entries cited, without tags or fusion partners. Where a name states a change or a piece, a line headed by the entry shows the natural chain unless it says otherwise.", "UniProt Q06210": "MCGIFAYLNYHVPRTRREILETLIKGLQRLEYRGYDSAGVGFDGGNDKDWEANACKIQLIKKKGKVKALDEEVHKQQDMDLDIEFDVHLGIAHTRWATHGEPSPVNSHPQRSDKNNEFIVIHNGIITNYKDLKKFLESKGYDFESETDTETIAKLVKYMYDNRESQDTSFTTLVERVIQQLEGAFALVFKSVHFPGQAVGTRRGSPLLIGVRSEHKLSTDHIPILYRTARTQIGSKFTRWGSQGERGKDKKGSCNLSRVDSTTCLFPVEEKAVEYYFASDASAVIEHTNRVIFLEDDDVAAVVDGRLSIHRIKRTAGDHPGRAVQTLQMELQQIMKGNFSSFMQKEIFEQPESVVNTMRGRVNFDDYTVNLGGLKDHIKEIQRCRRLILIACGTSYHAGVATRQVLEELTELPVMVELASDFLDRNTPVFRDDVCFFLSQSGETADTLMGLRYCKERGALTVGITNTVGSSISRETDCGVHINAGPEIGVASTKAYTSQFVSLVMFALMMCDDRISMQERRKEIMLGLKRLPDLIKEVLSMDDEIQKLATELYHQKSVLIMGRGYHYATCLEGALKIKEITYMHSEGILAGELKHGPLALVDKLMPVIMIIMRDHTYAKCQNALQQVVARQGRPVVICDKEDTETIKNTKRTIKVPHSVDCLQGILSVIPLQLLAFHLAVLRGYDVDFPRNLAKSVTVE"},
  "source": "paper PMC9363421",
  "binders": {"B1": {"name": "TTLL5, endogenous (enzyme, UniProt Q6EMB2 1-1281)", "chain": "MPIVMARDLEETASSSEDEEVISQEDHPCIMWTGGCRRIPVLVFHADAILTKDNNIRVIGERYHLSYKIVRTDSRLVRSILTAHGFHEVHPSSTDYNLMWTGSHLKPFLLRTLSEAQKVNHFPRSYELTRKDRLYKNIIRMQHTHGFKAFHILPQTFLLPAEYAEFCNSYSKDRGPWIVKPVASSRGRGVYLINNPNQISLEENILVSRYINNPLLIDDFKFDVRLYVLVTSYDPLVIYLYEEGLARFATVRYDQGAKNIRNQFMHLTNYSVNKKSGDYVSCDDPEVEDYGNKWSMSAMLRYLKQEGRDTTALMAHVEDLIIKTIISAELAIATACKTFVPHRSSCFELYGFDVLIDSTLKPWLLEVNLSPSLACDAPLDLKIKASMISDMFTVVGFVCQDPAQRASTRPIYPTFESSRRNPFQKPQRCRPLSASDAEMKNLVGSAREKGPGKLGGSVLGLSMEEIKVLRRVKEENDRRGGFIRIFPTSETWEIYGSYLEHKTSMNYMLATRLFQDRMTADGAPELKIESLNSKAKLHAALYERKLLSLEVRKRRRRSSRLRAMRPKYPVITQPAEMNVKTETESEEEEEVALDNEDEEQEASQEESAGFLRENQAKYTPSLTALVENTPKENSMKVREWNNKGGHCCKLETQELEPKFNLMQILQDNGNLSKMQARIAFSAYLQHVQIRLMKDSGGQTFSASWAAKEDEQMELVVRFLKRASNNLQHSLRMVLPSRRLALLERRRILAHQLGDFIIVYNKETEQMAEKKSKKKVEEEEEDGVNMENFQEFIRQASEAELEEVLTFYTQKNKSASVFLGTHSKISKNNNNYSDSGAKGDHPETIMEEVKIKPPKQQQTTEIHSDKLSRFTTSAEKEAKLVYSNSSSGPTATLQKIPNTHLSSVTTSDLSPGPCHHSSLSQIPSAIPSMPHQPTILLNTVSASASPCLHPGAQNIPSPTGLPRCRSGSHTIGPFSSFQSAAHIYSQKLSRPSSAKAGSCYLNKHHSGIAKTQKEGEDASLYSKRYNQSMVTAELQRLAEKQAARQYSPSSHINLLTQQVTNLNLATGIINRSSASAPPTLRPIISPSGPTWSTQSDPQAPENHSSSPGSRSLQTGGFAWEGEVENNVYSQATGVVPQHKYHPTAGSYQLQFALQQLEQQKLQSRQLLDQSRARHQAIFGSQTLPNSNLWTMNNGAGCRISSATASGQKPTTLPQKVVPPPSSCASLVPKPPPNHEQVLRRATSQKASKGSSAEGQLNGLQSSLNPAAFVPITSSTDPAHTKI"}},
  "molecular_target": "Flag-GFAT1 (glutamine-fructose-6-phosphate amidotransferase 1) (human) (UniProt Q06210)",
  "experiment": "affinity purification with mass spectrometry; Flag-GFAT1 immunoprecipitated from A549 cells with stable expression, 8 h glucose deprivation; mass spectrometry of the precipitates",
  "note": "No constants are given. Whether binding was seen depends on the method and setting. Binding seen in cells or lysates may run through a third protein. Here binding means that the protein was enriched with, or labelled near, the bait; the list need not be complete.",
  "data": [
    {"binder": "B1", "values": [
      {"measurement": "binding", "result": "binds"}
    ]}
  ]
}
